Source: patent US8663642B2 (priority 2003, dated 2014)

Assay: general procedure: solution-phase peptide synthesis; DEPC/DIEA
Settings: conjugation step

With MC-Val-Cit-PAB-MMAF-O-t-butyl ester as the substance, how does the conjugation yield read?
Its conjugation yield is 71%.
